# Laboratory results taken from PubChem BioAssay AID2551 (National Center for Advancing Translational Sciences (NCATS), 2010).
# The chains behind the UniProt entries cited, without tags or fusion partners. Where a name states a change or a piece, a line headed by the entry shows the natural chain unless it says otherwise.
# UniProt P51450: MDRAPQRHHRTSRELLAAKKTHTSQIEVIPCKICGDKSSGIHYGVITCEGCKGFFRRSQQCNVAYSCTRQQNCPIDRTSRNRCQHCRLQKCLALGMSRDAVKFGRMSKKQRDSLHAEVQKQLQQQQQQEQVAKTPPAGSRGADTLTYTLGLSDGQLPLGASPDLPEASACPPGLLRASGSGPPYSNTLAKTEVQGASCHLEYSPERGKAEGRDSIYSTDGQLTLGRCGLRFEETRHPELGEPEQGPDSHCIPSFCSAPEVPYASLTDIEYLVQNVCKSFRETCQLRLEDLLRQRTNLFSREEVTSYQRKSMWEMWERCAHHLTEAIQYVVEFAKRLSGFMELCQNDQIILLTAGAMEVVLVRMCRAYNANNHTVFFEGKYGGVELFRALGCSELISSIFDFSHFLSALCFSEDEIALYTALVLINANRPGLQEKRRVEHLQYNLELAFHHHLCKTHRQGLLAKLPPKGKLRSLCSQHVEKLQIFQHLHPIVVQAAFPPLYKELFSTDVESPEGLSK
# Out of some 310,000 compounds screened, about 17,000 (5.5%) were called active. Inconclusive means that the source gave no clear call. Such entries were picked first, then a sample of the others. The call rests on the fitted dose curve; in most records, active means well fitted inhibition curve with a large enough effect; inconclusive means small, poorly fitted or top-dose-only effect, or effect the other way; inactive means no such curve, though single readings can be large or run the other way. Potencies beside an inconclusive call are fits to weak or partial responses and may not hold up.
# Target: Nuclear receptor ROR-gamma (Mus musculus) (UniProt P51450)
# Assay: qHTS for inhibitors of ROR gamma transcriptional activity; further: nearly all actives have a fitted effect of over 60% in size
# Settings: Drosophila S2 Gal4-RORgamma UAS-luciferase reporter, 20 h; series mostly up to 53.6 µM
# Summary of the method: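 Luciferase reporter read in Schneider cells carrying Gal4-RORγ (mouse) and UAS-Photinus luciferase; cells given compound 1 h before 700 uM copper sulfate induction, then incubated 20 h at ambient temperature.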
# Potency means the concentration at half of the fitted maximal effect.
row,SMILES,Potency
1,O=C(O)CC1S/C(=N/N=C2CCCCC2)N(c2ccccc2)C1=O (stereo unspecified),"inconclusive: 25.1 µM [activator, single point]"
2,S=C(NCC1CCCO1)Nc1cccc2ccccc12 (stereo unspecified),active: 7.08 µM
3,CCOc1ccc(CCNC(=O)c2ccc(CS(=O)Cc3ccc(Cl)cc3)o2)cc1 (stereo unspecified),"inconclusive: 10 µM [activator, partial curve]"
4,Nc1cccc(-c2nc3ccc(N)cc3s2)c1,active: 3.55 µM
5,Cc1cc(C(=O)NNC(=S)NC(C)c2ccccc2)c2ccccc2n1 (stereo unspecified),active: 5.01 µM
6,Cc1ccc(-n2c(-c3ccccc3)c[n+]3c2CCc2ccccc2-3)c(C)c1,"inconclusive: 8.91 µM [inhibitor, partial curve, poor fit]"
7,COc1ccc(OC)c(C(C(=O)NC2CCCCC2)N(C(=O)c2ccccn2)c2cccnc2)c1 (stereo unspecified),inactive
8,Clc1ccc(Cc2nn3c(Cn4nnc5ccccc54)nnc3s2)cc1,"inconclusive: 0.112 µM [activator, full curve, poor fit]"
9,CC(C)c1ccc2c([Si](C)(C)C)c3c(nc2c1)-c1cccc(=O)n1C3,inactive
10,COc1ccc(-c2nc(NC3=NCCCCC3)sc2C)cc1,active: 10 µM
11,Cc1cc2nc(SCCOC(=O)Nc3cccc(Cl)c3)nc(C)c2cc1C,"inconclusive: 22.4 µM [activator, single point]"
12,COc1ccccc1/C=N/NC(=O)c1ccc2c(c1)OCO2,"inconclusive: 17.8 µM [activator, single point]"
13,Cn1ccc(C(=O)Nc2ccc3c(c2)OCCO3)n1,active: 7.94 µM
14,COc1ccccc1-n1nnnc1SCC(=O)NC1CCCCC1,inactive
15,O=S(=O)(c1ccccc1)N1CCN=C1SCc1ccccc1Cl,"inconclusive: 10 µM [activator, partial curve]"
16,COC(=O)N1C2(C=CC1(C)C(=O)NCc1ccc(N(C)C)cc1)CCCCC2 (stereo unspecified),inactive
17,FC(F)(F)c1nc2ccccc2nc1N/N=C/c1c(Cl)cccc1Cl,"inconclusive: 6.31 µM [inhibitor, single point]"
18,Cc1ccc(NC(=O)c2cc(S(=O)(=O)N3CCOCC3)cn2C)cc1Cl,"inconclusive: 25.1 µM [activator, single point]"
19,COC/C=C/C1=CC2=CC(=O)C(C)(OC(=O)c3cnc4ccccc4n3)C(=O)C2=CO1 (stereo unspecified),inactive
20,COc1ccccc1/C=C1\SC(=S)N(CCC(=O)NC2=NCCS2)C1=O,active: 4.47 µM
21,CSc1nc2ccc(NC(=O)c3c(F)cccc3F)cc2s1,"inconclusive: 0.282 µM [activator, full curve, poor fit]"
22,Cc1ccccc1N=CC=C1OC(C)(C)C(C)(C)O1,"inconclusive: 35.5 µM [inhibitor, single point]"
23,COc1cc(C(=O)NCCC(C)C)ccc1OCc1ccc(Cl)cc1Cl,"inconclusive: 10 µM [activator, partial curve]"
24,Cc1cccc(NC(=S)NCC(c2ccccc2)N(C)C)c1 (stereo unspecified),active: 3.16 µM
25,Cc1cc(C)n(-c2ccc(NC(=O)C3CCCCN3C(=O)c3occc3C)cc2)n1 (stereo unspecified),inactive
26,Cc1cccc(/C(N)=N/OC(=O)c2ccc(Br)o2)c1,active: 12.6 µM

# In a second layout: 2 of the compounds above
row	SMILES	Potency
8	Clc1ccc(Cc2nn3c(Cn4nnc5ccccc54)nnc3s2)cc1	inconclusive: 0.112 µM [activator, full curve, poor fit]
12	COc1ccccc1/C=N/NC(=O)c1ccc2c(c1)OCO2	inconclusive: 17.8 µM [activator, single point]
